From the supplement of paper PMC10849652
Some of the results follow.

The chains behind the UniProt entries cited, without tags or fusion partners. Where a name states a change or a piece, a line headed by the entry shows the natural chain unless it says otherwise.
UniProt Q13137: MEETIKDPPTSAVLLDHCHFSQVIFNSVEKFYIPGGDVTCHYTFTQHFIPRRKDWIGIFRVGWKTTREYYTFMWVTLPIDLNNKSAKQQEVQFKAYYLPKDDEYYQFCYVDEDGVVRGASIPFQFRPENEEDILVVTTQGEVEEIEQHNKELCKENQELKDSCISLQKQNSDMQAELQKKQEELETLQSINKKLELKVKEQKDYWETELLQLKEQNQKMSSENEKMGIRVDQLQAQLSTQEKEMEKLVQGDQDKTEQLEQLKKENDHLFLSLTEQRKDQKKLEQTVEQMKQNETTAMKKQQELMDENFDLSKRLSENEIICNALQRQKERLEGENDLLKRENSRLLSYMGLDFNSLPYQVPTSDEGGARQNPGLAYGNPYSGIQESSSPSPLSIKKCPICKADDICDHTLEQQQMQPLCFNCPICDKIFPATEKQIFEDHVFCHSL
UniProt Q9P1Z2: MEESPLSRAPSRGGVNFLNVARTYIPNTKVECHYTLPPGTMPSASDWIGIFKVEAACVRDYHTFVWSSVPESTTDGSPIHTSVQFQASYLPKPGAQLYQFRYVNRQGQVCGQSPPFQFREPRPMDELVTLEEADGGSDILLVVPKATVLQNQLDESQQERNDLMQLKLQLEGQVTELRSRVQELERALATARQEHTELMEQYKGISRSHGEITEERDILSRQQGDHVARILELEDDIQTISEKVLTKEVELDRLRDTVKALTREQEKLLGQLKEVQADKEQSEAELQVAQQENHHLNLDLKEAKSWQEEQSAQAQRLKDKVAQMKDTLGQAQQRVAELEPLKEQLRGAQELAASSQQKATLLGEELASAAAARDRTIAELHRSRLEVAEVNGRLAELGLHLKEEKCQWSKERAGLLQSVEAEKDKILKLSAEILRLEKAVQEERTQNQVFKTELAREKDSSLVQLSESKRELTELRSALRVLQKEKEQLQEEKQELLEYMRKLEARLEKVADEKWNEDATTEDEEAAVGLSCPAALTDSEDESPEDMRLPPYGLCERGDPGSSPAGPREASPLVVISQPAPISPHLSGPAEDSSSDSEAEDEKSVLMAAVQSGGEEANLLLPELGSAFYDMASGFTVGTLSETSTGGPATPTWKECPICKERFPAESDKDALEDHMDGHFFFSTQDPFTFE
UniProt Q5T5Y3: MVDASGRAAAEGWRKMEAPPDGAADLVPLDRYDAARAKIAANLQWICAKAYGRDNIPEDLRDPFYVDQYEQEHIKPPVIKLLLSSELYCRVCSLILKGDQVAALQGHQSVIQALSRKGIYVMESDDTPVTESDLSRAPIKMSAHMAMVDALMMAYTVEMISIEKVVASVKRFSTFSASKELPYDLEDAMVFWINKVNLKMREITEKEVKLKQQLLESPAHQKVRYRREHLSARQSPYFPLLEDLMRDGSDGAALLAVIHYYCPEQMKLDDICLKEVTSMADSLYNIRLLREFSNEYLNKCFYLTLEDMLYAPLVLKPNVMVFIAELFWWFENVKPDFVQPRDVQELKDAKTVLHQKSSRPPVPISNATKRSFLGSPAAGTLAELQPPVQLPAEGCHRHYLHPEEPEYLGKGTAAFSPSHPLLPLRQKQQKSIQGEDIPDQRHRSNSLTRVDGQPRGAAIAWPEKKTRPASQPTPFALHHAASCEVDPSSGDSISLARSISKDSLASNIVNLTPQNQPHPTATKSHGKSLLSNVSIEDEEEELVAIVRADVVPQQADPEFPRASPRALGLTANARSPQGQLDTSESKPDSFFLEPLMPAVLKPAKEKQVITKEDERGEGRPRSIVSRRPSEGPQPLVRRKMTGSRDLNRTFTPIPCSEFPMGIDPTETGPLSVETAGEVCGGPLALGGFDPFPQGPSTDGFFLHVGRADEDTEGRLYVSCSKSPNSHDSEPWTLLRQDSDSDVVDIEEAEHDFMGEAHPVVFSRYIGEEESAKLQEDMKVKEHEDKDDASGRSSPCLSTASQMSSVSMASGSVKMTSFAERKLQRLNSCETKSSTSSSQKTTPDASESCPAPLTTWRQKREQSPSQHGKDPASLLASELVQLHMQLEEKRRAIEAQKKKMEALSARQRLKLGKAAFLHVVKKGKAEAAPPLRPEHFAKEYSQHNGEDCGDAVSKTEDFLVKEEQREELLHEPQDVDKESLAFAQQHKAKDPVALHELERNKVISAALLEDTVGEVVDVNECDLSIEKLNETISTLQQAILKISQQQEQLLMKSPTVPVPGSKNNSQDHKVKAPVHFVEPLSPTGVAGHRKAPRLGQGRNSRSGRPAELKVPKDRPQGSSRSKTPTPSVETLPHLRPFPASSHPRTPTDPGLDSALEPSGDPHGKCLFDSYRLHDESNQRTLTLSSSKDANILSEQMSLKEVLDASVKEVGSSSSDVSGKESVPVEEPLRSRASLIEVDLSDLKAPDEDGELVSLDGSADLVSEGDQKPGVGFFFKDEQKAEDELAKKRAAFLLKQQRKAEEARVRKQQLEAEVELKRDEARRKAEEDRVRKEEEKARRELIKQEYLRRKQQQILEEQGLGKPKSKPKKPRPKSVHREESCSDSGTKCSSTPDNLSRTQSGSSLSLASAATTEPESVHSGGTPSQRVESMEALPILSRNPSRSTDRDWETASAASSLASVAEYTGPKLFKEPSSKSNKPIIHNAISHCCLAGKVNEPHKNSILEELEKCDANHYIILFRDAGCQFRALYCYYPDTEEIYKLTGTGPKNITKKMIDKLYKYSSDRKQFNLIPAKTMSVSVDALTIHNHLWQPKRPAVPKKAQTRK
UniProt Q96K31: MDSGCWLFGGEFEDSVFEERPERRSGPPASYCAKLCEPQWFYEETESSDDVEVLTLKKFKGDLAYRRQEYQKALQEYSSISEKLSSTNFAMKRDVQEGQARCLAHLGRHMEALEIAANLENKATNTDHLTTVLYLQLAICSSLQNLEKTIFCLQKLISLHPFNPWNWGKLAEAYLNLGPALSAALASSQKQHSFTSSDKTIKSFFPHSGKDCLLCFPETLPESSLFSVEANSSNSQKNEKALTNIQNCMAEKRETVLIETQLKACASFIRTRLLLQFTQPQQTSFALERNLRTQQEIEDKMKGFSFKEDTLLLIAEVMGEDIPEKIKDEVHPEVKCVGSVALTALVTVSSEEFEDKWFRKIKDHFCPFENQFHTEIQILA
UniProt O60566, whole entry, looked up: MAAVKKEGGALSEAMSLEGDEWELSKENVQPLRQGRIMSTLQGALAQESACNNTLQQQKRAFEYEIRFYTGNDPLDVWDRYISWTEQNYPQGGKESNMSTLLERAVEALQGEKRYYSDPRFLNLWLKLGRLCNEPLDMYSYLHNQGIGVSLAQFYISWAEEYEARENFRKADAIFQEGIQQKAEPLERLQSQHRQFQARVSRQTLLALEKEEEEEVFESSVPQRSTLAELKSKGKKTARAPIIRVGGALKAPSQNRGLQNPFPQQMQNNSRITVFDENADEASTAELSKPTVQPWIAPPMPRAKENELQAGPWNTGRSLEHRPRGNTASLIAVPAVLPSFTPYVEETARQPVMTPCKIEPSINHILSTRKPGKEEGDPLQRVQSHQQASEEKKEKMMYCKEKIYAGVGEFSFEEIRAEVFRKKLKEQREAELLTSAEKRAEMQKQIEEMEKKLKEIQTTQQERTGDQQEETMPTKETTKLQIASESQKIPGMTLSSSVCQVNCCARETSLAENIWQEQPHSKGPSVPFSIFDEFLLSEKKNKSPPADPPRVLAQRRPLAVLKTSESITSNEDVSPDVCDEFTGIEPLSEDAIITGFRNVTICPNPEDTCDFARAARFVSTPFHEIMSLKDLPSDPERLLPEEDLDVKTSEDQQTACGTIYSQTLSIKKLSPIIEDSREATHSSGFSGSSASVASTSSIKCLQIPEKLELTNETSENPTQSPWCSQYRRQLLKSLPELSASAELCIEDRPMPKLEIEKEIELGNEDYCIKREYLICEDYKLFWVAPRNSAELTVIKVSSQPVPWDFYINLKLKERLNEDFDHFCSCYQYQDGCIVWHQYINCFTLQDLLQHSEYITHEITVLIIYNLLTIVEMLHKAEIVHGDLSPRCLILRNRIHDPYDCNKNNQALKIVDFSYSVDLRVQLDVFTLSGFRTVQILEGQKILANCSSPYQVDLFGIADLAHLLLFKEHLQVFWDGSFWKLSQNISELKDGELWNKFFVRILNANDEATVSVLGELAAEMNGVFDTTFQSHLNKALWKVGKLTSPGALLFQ
UniProt Q9UFG5: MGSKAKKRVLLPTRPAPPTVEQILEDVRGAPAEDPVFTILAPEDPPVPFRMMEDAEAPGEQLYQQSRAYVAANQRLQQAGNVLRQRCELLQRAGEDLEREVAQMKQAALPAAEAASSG
UniProt P04632: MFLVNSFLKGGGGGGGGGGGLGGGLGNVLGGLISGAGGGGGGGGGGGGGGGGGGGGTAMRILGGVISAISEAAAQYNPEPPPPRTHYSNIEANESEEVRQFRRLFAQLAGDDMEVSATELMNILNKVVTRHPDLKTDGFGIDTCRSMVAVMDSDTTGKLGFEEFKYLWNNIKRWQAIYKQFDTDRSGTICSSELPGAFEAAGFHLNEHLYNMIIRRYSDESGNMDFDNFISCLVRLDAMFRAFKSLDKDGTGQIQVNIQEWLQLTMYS
UniProt Q96LT7: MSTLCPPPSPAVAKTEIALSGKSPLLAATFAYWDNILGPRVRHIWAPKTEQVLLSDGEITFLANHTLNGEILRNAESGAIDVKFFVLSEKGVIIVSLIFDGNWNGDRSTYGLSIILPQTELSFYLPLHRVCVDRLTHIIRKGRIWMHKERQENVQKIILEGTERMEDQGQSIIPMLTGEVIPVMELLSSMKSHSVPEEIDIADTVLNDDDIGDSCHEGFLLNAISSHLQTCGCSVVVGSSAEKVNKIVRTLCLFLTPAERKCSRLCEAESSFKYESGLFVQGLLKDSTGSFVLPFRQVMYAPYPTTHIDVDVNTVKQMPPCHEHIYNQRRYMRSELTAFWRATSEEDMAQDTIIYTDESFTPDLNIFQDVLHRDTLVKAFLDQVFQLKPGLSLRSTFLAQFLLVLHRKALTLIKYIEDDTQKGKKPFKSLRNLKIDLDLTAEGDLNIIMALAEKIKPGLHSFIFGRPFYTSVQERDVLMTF
UniProt Q13554, whole entry, looked up: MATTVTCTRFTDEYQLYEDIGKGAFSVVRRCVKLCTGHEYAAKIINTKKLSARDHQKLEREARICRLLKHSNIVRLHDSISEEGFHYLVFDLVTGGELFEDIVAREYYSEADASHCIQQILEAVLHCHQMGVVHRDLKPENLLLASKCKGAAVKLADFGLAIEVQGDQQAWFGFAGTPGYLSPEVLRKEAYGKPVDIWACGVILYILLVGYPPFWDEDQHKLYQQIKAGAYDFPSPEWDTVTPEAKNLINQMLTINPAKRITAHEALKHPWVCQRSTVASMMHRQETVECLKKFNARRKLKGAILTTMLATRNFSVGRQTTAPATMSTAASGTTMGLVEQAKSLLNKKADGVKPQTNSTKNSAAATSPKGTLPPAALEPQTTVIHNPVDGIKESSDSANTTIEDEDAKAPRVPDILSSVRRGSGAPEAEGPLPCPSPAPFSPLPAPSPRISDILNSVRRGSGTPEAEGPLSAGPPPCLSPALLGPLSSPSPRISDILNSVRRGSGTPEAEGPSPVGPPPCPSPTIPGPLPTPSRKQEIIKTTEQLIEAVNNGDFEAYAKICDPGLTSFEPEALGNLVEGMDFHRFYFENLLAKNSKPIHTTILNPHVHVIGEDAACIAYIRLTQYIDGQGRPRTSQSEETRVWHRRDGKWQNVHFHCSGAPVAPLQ
UniProt Q14012: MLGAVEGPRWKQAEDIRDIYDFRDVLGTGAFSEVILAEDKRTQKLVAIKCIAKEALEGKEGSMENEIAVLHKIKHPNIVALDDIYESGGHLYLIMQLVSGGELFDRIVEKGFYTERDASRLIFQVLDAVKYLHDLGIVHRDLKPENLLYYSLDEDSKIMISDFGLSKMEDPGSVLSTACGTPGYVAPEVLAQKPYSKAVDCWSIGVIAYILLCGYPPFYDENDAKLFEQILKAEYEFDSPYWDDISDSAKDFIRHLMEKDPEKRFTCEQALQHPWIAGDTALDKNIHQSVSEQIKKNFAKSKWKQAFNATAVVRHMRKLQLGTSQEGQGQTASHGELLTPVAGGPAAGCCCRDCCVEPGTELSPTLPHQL
UniProt Q13901: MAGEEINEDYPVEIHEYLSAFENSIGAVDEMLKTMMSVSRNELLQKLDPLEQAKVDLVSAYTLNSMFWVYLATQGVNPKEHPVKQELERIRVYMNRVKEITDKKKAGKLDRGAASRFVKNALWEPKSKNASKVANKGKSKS
UniProt Q5JPI3: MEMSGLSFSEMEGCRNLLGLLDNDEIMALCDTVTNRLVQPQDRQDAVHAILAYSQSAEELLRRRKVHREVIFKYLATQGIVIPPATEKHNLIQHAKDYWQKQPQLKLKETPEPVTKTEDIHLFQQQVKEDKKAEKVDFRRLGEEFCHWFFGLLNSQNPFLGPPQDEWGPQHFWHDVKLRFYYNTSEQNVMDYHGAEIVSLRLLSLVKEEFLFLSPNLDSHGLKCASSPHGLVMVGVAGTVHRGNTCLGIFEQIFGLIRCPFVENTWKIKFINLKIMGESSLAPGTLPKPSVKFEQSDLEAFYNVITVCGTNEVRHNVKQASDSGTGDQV

Legend:
Assay in all cases: log2 fold change, soluble protein after heating vs DMSO (PISA); higher = thermal stabilisation; K562 lysate, 10 uM; active = over 0.2 and 3.5 SD of the protein, either way, in both replicates (recomputed)
ibrutinib = compound: C=CC(=O)N1CCC[C@@H](n2nc(-c3ccc(Oc4ccccc4)cc3)c3c(N)ncnc32)C1 [ibrutinib]
In short: (§1)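 Following dounce homogenisation of K562 pellets in PBS pH 7.4 with 1 mM MgCl2, crude extract at 1 mg/mL protein was incubated for 30 min with 10 μM compound. Aliquots were then heated for 3 min over 48°C-58°C and pooled, NP-40 was added to 0.5% at 4°C, and soluble protein was recovered as the supernatant at 21,000xg for 90 min. Channel-sum-equalised TMTpro 16plex LC-MS/MS quantified this protein. Each value, from duplicates, is a log-two fold change in thermal stability relative to solvent controls.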

[1] = compound: CC(=O)c1cnc2ccc(-c3cc(Cl)c(O)c(Cl)c3)nc2c1N[C@H]1CC[C@H](CN(C)C)CC1
In short: as §1

ralimetinib = compound: CC(C)(C)Cn1c(N)nc2ccc(-c3[nH]c(C(C)(C)C)nc3-c3ccc(F)cc3)nc21 [ralimetinib]
In short: as §1

[2] = compound: CC(C)(O)CC(=O)NCCn1ccc2ncnc(Nc3ccc(Oc4cccc(C(F)(F)F)c4)c(Cl)c3)c21
In short: as §1

[3] = compound: CC(C)C1=C2N=C(C=C(N2N=C1)NCC3=CC=CC=C3)NCCCCCCN
In short: as §1

[4] = compound: CC1=C(C(CC(=O)N1)C2=CC=C(C=C2)C(F)(F)F)C(=O)NC3=C(C=C4C(=C3)C=NN4)F
In short: as §1

[5] = compound: CC1=C(C2=C(C=C1)C(=O)C3=CC=CC=C3N2CCCN)C
In short: as §1

[6] = compound: CC1=C(C=C(C=C1)NC(=O)C2=CC(=CC=C2)C(C)(C)C#N)NC3=CC4=C(C=C3)N=CN(C4=O)C
In short: as §1

[7] = compound: CC1=C(C=C(C=C1)NC(=O)C2=CC(=CC=C2)N(C)C)NC(=O)C3=CC=C(C=C3)O
In short: as §1

[8] = compound: CC1=CC=C(C=C1)SC2=C3C=C(SC3=CN=C2)C(=O)N
In short: as §1

vemurafenib = compound: CCCS(=O)(=O)Nc1ccc(F)c(C(=O)c2c[nH]c3ncc(-c4ccc(Cl)cc4)cc23)c1F [vemurafenib]
In short: as §1

[9] = compound: CCCS(=O)(=O)Nc1ccc(F)c(C(=O)c2c[nH]c3ncc(Cl)cc23)c1F
In short: as §1

barasertib = compound: CCN(CCCOc1ccc2c(Nc3cc(CC(=O)Nc4cccc(F)c4)[nH]n3)ncnc2c1)CCOP(=O)(O)O [barasertib]
In short: as §1

[10] = compound: CC[C@@H]1C(=O)N(C)c2cnc(Nc3ccc(C(=O)NC4CCN(C)CC4)cc3OC)nc2N1C1CCCC1
In short: as §1

volasertib = compound: CC[C@@H]1C(=O)N(C)c2cnc(Nc3ccc(C(=O)N[C@H]4CC[C@H](N5CCN(CC6CC6)CC5)CC4)cc3OC)nc2N1C(C)C [volasertib]
In short: as §1

[11] = compound: CCn1c(C(=O)N(C2CC2)C2CC2)cc2c3c(ncn3C)c(Nc3cc(C)n(C)n3)nc21
In short: as §1

[12] = compound: CCn1cc(-c2ccnc3[nH]c(-c4cccc(CN(C)C)c4)cc23)c(-c2ccc(NC(=O)N(C)C)cc2)n1
In short: as §1

[13] = compound: CN1CCC(CNc2ccc3ncc(-c4cccc(OC(F)(F)F)c4)n3n2)CC1
In short: as §1

saracatinib = compound: CN1CCN(CCOc2cc(OC3CCOCC3)c3c(Nc4c(Cl)ccc5c4OCO5)ncnc3c2)CC1 [saracatinib]
In short: as §1

sotrastaurin = compound: CN1CCN(c2nc(C3=C(c4c[nH]c5ccccc45)C(=O)NC3=O)c3ccccc3n2)CC1 [sotrastaurin]
In short: as §1

Measured: log2 fold change

CALCOCO2 isoform 4 (UniProt Q13137)
inactive: ibrutinib -0.002 | [1] 0.018 | ralimetinib -0.012 | [2] -0.014 | [3] -0.026 | [4] -0.03 | [5] -0.005 | [6] 0.015 | [7] 0.023 | [8] 0.027 | vemurafenib 0.018 | [9] 0.033 | barasertib 0.041 | [10] 0.025 | volasertib 0.01 | [11] -0.019 | [12] -0.073 | [13] 0.004 | saracatinib 0.012 | sotrastaurin -0.019

CALCOCO1 (UniProt Q9P1Z2)
inactive: ibrutinib 0.058 | [1] -0.001 | ralimetinib 0.053 | [2] -0.023 | [3] -0.008 | [4] 0.048 | [5] 0.001 | [6] 0.04 | [7] -0.019 | [8] -0.022 | vemurafenib 0.121 | [9] 0.021 | barasertib 0.047 | [10] -0.016 | volasertib -0.021 | [11] 0.051 | [12] -0.056 | [13] 0.026 | saracatinib 0.041 | sotrastaurin -0.013

CAMSAP1 isoform 3 (UniProt Q5T5Y3)
inactive: ibrutinib 0.004 | [1] 0.005 | ralimetinib 0.015 | [2] -0.012 | [3] 0.031 | [4] 0.012 | [5] 0.021 | [6] 0.024 | [7] 0.027 | [8] -0.051 | vemurafenib 0.004 | [9] 0.029 | barasertib 0.006 | [10] 0.003 | volasertib 0.051 | [11] -0.031 | [12] 0.137 | [13] -0.03 | saracatinib 0.008 | sotrastaurin 0.014

C8orf76 (UniProt Q96K31)
inactive: ibrutinib -0.02 | [1] -0.025 | ralimetinib -0.018 | [2] -0.065 | [3] -0.004 | [4] 0.043 | [5] -0.005 | [6] -0.01 | [7] 0.001 | [8] -0.03 | vemurafenib 0.01 | [9] 0.056 | barasertib -0.091 | [10] 0.055 | volasertib 0.006 | [11] 0.005 | [12] 0.014 | [13] 0.045 | saracatinib -0.051 | sotrastaurin 0.031

BUB1B isoform 3 (UniProt O60566)
inactive: ibrutinib 0.035 | [1] -0.007 | ralimetinib 0.001 | [2] 0.021 | [3] 0.003 | [4] -0.001 | [5] 0.004 | [6] -0.028 | [7] 0.003 | [8] 0.001 | vemurafenib 0.024 | [9] 0.024 | barasertib 0.03 | [10] -0.012 | volasertib -0.014 | [11] 0.01 | [12] 0.13 | [13] -0.05 | saracatinib -0.006 | sotrastaurin 0.009

3 consecutive entries already listed, quoted:
CALCOCO2 isoform 4 (UniProt Q13137)
inactive: ibrutinib -0.002 | [1] 0.018 | ralimetinib -0.012 | [2] -0.014 | [3] -0.026 | [4] -0.03 | [5] -0.005 | [6] 0.015 | [7] 0.023 | [8] 0.027 | vemurafenib 0.018 | [9] 0.033 | barasertib 0.041 | [10] 0.025 | volasertib 0.01 | [11] -0.019 | [12] -0.073 | [13] 0.004 | saracatinib 0.012 | sotrastaurin -0.019

CALCOCO1 (UniProt Q9P1Z2)
inactive: ibrutinib 0.058 | [1] -0.001 | ralimetinib 0.053 | [2] -0.023 | [3] -0.008 | [4] 0.048 | [5] 0.001 | [6] 0.04 | [7] -0.019 | [8] -0.022 | vemurafenib 0.121 | [9] 0.021 | barasertib 0.047 | [10] -0.016 | volasertib -0.021 | [11] 0.051 | [12] -0.056 | [13] 0.026 | saracatinib 0.041 | sotrastaurin -0.013

CAMSAP1 isoform 3 (UniProt Q5T5Y3)
inactive: ibrutinib 0.004 | [1] 0.005 | ralimetinib 0.015 | [2] -0.012 | [3] 0.031 | [4] 0.012 | [5] 0.021 | [6] 0.024 | [7] 0.027 | [8] -0.051 | vemurafenib 0.004 | [9] 0.029 | barasertib 0.006 | [10] 0.003 | volasertib 0.051 | [11] -0.031 | [12] 0.137 | [13] -0.03 | saracatinib 0.008 | sotrastaurin 0.014

Later entries.

CARD11 (UniProt Q9BXL7)
inactive: ibrutinib -0.097 | [1] -0.023 | ralimetinib -0.02 | [2] 0.003 | [3] -0.075 | [4] -0.041 | [5] 0.025 | [6] 0.01 | [7] 0.051 | [8] -0.143 | vemurafenib 0.088 | [9] 0.012 | barasertib -0.075 | [10] -0.087 | volasertib -0.071 | [11] 0.082 | [12] -0.024 | [13] -0.014 | saracatinib 0.063 | sotrastaurin 0.002

C19orf25 (UniProt Q9UFG5)
inactive: ibrutinib 0.158 | [1] -0.114 | ralimetinib -0.033 | [2] -0.143 | [3] -0.065 | [4] -0.019 | [5] -0.122 | [6] -0.009 | [7] 0.067 | [8] 0.003 | vemurafenib 0.168 | [9] -0.05 | barasertib -0.014 | volasertib 0.024 | [11] -0.002 | [12] 0.075 | [13] -0.114 | saracatinib -0.017 | sotrastaurin 0.009

CAPNS1 (UniProt P04632)
active: [12] -0.334
inactive: ibrutinib 0.076 | [1] 0.002 | ralimetinib 0.035 | [2] -0.007 | [3] -0.015 | [4] 0.006 | [5] 0.053 | [6] 0 | [7] -0.025 | [8] 0.01 | vemurafenib -0.032 | [9] 0.021 | barasertib 0.11 | [10] -0.027 | volasertib 0.04 | [11] -0.006 | [13] 0.07 | saracatinib 0.003 | sotrastaurin -0.012

C9orf72 (UniProt Q96LT7)
inactive: ibrutinib -0.079 | [1] -0.004 | ralimetinib -0.011 | [2] -0.021 | [3] 0.025 | [4] -0.066 | [5] 0.014 | [6] -0.003 | [7] -0.023 | [8] 0.038 | [9] -0.03 | barasertib -0.091 | [10] 0.034 | volasertib 0.088 | [11] 0.022 | [12] -0.065 | [13] -0.015 | saracatinib 0.082 | sotrastaurin 0.011

CAMK2B (UniProt Q13554)
inactive: ibrutinib 0.092 | [1] 0.023 | ralimetinib 0.028 | [2] 0.045 | [3] 0.075 | [4] -0.035 | [5] -0.018 | [6] -0.005 | [7] 0.046 | [8] -0.032 | vemurafenib 0.011 | [9] -0.058 | barasertib 0.014 | volasertib -0.145 | [11] 0.022 | [12] -0.021 | [13] 0.049 | saracatinib -0.077

CAMK1 (UniProt Q14012)
inactive: ibrutinib 0.017 | [1] 0.009 | ralimetinib 0.004 | [2] -0.144 | [3] -0.017 | [4] -0.034 | [5] -0.003 | [6] 0.016 | [7] -0.027 | [8] 0.008 | vemurafenib -0.094 | barasertib 0.027 | [10] 0.106 | volasertib -0.018 | [11] -0.06 | [12] -0.095 | [13] 0.272 | saracatinib -0.061 | sotrastaurin -0.016

C8orf33 isoform 2 (UniProt Q9H7E9)
inactive: ibrutinib 0.036 | [1] 0 | ralimetinib 0.064 | [2] 0.022 | [3] 0.044 | [4] -0.038 | [5] 0.007 | [6] -0.037 | [7] -0.016 | [8] 0.005 | vemurafenib 0.019 | [9] 0.035 | barasertib -0.009 | [10] 0.062 | volasertib 0.004 | [11] 0.101 | [12] 0.094 | [13] 0.019 | saracatinib 0.082 | sotrastaurin 0.005

C1D (UniProt Q13901)
inactive: ibrutinib -0.077 | [1] 0.011 | ralimetinib 0.002 | [2] -0.027 | [3] -0.021 | [4] -0.055 | [5] 0 | [6] -0.025 | [7] -0.037 | [8] 0.011 | vemurafenib -0.013 | [9] -0.008 | barasertib -0.013 | [10] 0.034 | volasertib -0.033 | [11] 0.012 | [12] 0.001 | [13] 0.04 | saracatinib -0.018 | sotrastaurin -0.017

C9orf64 (UniProt Q5T6V5)
inactive: ibrutinib 0.005 | [1] 0.007 | ralimetinib 0.014 | [2] -0.014 | [3] -0.014 | [4] -0.02 | [5] 0.009 | [6] 0.037 | [7] -0.001 | [8] -0.002 | vemurafenib 0.022 | [9] 0.007 | barasertib -0.043 | [10] -0.032 | volasertib -0.032 | [11] 0.013 | [12] -0.032 | [13] 0.002 | saracatinib -0.026 | sotrastaurin -0.058

C3orf38 (UniProt Q5JPI3)
inactive: ibrutinib 0.049 | [1] 0.067 | ralimetinib 0.009 | [2] -0.112 | [3] -0.002 | [4] -0.031 | [5] 0.002 | [6] 0.022 | [7] -0.04 | [8] 0.101 | vemurafenib 0.055 | [9] -0.006 | barasertib 0.001 | [10] 0.089 | volasertib -0.027 | [11] -0.036 | [12] 0.015 | [13] 0.022 | saracatinib -0.018 | sotrastaurin 0.06
